This note sets out measurements from PMC10074136.

These are yes or no findings as the source states them, for the method shown. In cells and extracts the contact can be indirect. A result given as binding can be weak or reduced; the word gives no strength.

Test [1] has as its target T1, cytochrome c oxidase subunit 4 isoform 2 (COX4I2) (mouse (endogenous in mouse chondrocytes)) (UniProt Q91W29).
T1 sequence: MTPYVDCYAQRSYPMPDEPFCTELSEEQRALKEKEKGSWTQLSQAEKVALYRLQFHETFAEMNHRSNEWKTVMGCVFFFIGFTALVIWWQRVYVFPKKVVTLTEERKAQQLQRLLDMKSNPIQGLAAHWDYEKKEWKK
Kind of test: co-IP; lysates of mouse chondrocytes transfected with or without Sirt3-targeting pcDNA3.1 vector; precleared with protein A/G plus agarose; anti-SIRT3, anti-COX4I2 or non-specific IgG at 4 °C overnight; western blot; forward and reverse.

The target of test [2] is Silent mating type information regulation 2 homolog 3 (SIRT3) (mouse (endogenous in mouse chondrocytes)). Described as above.

With “Silent mating type information regulation 2 homolog 3 (SIRT3) (mouse (endogenous in mouse chondrocytes)) (enzyme)”, the binding result in test [1] is recorded as “binds”.

B1: cytochrome c oxidase subunit 4 isoform 2 (COX4I2) (protein, UniProt Q91W29 35-172)
chain: MTPYVDCYAQRSYPMPDEPFCTELSEEQRALKEKEKGSWTQLSQAEKVALYRLQFHETFAEMNHRSNEWKTVMGCVFFFIGFTALVIWWQRVYVFPKKVVTLTEERKAQQLQRLLDMKSNPIQGLAAHWDYEKKEWKK
Consider B1, for which the binding entry in test [2] was “binds”.
